Measurements published in the supplement of paper PMC10849652.
The other results are listed elsewhere or left out.

By UniProt entry, the sequences of proteins in these tests, tags left out. Where a name states a change or a piece, a line headed by the entry shows the natural chain unless it says otherwise.
UniProt P08247, whole entry, looked up: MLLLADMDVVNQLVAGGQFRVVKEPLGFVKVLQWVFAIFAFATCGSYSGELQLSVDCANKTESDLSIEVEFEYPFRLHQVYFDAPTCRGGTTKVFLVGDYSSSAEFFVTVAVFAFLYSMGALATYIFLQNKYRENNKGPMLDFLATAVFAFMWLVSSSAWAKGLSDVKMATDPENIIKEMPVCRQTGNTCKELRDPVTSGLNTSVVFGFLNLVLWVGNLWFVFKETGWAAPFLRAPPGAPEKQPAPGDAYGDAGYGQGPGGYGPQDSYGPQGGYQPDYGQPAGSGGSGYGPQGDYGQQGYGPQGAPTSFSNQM
UniProt Q9H6P5: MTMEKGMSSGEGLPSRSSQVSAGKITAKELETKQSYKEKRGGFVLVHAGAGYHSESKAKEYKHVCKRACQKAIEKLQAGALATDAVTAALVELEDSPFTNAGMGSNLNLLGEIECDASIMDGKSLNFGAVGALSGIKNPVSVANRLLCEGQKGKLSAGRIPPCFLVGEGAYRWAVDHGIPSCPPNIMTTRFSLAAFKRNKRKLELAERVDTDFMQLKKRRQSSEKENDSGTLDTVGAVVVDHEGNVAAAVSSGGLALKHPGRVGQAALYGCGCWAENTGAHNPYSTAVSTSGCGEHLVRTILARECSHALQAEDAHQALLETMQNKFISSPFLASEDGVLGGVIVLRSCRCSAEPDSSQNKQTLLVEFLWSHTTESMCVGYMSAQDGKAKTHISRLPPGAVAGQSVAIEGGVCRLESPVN
UniProt Q15542, whole entry, looked up: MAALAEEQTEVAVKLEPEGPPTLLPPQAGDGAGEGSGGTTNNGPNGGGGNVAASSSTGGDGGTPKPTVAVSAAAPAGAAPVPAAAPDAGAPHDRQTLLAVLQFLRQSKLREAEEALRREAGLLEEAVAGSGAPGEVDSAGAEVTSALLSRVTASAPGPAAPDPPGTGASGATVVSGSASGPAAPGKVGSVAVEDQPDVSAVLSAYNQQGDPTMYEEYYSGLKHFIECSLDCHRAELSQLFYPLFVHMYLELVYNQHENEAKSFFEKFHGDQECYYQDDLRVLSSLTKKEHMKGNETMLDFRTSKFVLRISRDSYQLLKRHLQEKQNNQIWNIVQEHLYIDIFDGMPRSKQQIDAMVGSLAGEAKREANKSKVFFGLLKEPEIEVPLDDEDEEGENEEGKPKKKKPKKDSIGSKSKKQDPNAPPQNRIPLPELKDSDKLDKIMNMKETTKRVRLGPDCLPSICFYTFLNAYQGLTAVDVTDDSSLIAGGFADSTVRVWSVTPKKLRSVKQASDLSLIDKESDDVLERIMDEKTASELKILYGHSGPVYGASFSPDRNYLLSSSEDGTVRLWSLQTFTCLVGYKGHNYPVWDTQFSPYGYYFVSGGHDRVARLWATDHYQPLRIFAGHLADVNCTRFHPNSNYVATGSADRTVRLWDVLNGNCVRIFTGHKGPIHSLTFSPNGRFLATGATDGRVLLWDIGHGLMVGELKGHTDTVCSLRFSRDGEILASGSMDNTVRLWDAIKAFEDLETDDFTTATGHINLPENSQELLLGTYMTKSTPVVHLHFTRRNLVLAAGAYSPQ
UniProt O60347: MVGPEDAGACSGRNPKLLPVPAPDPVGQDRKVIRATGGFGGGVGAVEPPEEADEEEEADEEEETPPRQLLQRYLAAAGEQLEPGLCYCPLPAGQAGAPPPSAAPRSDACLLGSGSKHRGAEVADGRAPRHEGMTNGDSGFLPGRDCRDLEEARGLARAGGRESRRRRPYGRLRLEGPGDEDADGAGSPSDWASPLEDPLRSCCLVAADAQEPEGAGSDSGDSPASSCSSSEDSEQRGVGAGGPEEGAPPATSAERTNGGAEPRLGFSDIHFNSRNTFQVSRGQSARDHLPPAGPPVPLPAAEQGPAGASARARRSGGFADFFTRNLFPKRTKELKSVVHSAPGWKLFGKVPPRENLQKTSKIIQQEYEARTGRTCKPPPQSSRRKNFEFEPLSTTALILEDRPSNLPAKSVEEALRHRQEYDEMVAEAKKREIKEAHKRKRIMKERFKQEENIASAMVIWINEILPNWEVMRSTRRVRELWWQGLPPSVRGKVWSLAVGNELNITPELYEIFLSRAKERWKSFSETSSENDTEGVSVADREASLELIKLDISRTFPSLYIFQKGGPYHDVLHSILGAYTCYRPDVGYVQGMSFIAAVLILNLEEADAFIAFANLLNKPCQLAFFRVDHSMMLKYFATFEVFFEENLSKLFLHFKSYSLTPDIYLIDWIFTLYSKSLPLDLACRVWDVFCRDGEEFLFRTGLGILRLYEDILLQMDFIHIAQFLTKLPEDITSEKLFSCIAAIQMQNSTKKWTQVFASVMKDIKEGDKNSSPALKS
UniProt Q1ZZU3: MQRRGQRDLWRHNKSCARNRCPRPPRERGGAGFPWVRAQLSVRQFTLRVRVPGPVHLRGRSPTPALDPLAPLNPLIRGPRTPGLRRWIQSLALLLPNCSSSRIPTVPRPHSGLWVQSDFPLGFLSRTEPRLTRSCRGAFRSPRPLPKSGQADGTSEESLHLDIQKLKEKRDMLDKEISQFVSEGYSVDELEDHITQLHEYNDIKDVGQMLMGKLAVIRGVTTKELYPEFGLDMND
UniProt Q9UI15: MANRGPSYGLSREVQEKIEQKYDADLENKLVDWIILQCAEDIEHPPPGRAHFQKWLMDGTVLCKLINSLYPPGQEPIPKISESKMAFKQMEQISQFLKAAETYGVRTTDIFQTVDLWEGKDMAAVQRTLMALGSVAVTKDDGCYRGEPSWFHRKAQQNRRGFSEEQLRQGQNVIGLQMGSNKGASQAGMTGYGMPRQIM
UniProt Q9Y2K9: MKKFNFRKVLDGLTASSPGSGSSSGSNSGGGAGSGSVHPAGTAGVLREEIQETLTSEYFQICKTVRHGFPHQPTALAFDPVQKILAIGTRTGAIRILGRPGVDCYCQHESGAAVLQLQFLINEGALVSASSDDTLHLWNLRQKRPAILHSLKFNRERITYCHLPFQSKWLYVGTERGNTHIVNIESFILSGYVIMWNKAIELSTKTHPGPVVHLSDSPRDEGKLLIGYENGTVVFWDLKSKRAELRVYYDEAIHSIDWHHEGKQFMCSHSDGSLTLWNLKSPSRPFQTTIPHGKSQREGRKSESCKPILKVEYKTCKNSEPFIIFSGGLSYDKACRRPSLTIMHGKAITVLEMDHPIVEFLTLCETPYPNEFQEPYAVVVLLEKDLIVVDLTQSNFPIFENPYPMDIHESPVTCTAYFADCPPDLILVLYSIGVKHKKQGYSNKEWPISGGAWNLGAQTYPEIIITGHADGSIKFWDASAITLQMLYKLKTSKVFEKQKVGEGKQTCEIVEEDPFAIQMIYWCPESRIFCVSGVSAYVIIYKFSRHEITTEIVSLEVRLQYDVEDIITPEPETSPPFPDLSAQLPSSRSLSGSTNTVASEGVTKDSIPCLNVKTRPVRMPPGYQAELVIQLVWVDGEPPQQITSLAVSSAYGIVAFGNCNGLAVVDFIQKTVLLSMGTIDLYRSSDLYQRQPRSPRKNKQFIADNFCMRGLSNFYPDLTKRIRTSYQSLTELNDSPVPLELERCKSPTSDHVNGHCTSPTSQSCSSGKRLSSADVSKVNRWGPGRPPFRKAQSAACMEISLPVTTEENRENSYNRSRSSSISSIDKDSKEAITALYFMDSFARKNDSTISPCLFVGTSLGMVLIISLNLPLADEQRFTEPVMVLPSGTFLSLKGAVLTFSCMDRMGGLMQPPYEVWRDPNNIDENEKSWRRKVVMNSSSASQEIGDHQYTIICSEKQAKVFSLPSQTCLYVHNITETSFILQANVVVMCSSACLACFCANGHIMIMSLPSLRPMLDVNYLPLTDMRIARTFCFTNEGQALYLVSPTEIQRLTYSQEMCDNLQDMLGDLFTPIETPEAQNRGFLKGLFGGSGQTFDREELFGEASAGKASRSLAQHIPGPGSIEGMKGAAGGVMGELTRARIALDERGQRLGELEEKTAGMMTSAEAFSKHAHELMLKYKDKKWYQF
UniProt Q9NRP7: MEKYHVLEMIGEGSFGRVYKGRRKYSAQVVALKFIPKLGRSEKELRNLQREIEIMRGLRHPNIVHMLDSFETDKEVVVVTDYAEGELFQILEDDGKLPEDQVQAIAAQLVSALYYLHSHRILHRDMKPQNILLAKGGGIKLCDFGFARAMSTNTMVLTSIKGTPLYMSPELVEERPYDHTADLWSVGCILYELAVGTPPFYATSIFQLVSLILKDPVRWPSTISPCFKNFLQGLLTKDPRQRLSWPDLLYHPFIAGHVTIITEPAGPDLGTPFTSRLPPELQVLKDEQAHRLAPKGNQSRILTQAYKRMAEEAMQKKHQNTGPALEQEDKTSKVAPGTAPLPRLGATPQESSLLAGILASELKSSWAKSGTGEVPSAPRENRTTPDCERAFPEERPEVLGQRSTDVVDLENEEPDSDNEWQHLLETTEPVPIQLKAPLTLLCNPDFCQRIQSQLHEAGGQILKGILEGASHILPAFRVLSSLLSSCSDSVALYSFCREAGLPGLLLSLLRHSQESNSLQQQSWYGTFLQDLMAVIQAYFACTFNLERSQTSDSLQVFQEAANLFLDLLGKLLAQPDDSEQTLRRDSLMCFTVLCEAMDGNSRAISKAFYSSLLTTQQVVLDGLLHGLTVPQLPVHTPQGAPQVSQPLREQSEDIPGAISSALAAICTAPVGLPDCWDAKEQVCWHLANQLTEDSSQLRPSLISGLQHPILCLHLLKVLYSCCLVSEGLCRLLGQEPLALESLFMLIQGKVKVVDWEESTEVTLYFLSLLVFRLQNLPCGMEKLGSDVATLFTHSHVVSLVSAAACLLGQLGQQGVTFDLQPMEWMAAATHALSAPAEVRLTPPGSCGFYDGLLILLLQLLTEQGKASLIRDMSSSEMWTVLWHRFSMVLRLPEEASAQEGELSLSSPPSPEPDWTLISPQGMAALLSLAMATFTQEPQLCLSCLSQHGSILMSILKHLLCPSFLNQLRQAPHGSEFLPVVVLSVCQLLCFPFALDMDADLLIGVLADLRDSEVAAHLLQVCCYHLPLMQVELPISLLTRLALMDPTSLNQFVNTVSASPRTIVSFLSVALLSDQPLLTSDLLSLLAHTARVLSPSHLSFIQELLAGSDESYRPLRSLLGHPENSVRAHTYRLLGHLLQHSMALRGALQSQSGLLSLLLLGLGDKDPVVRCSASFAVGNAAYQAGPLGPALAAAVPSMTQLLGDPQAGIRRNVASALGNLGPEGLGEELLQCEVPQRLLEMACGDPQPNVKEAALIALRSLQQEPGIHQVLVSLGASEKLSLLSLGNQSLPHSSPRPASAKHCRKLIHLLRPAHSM
UniProt Q8WUJ0: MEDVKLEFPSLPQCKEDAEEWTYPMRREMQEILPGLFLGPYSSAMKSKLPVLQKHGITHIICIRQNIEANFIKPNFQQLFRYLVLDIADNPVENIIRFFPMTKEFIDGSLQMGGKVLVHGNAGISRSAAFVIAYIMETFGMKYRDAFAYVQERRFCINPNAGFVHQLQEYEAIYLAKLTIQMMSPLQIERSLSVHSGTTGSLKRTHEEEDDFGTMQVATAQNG
UniProt Q9Y2Z0: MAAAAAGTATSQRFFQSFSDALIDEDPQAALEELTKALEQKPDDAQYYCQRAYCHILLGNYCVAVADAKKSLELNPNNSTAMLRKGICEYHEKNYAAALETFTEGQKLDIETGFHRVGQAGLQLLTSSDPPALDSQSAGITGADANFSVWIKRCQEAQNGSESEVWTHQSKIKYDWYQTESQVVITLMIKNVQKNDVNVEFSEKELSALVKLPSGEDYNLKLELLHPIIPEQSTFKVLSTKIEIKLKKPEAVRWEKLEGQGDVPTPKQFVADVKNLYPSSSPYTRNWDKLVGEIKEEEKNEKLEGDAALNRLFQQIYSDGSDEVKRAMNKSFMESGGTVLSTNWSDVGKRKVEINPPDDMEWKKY
UniProt Q16514: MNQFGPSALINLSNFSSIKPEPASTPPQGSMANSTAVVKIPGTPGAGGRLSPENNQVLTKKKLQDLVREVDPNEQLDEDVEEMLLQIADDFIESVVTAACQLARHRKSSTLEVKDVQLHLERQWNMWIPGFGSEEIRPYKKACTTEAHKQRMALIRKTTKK
UniProt Q01995: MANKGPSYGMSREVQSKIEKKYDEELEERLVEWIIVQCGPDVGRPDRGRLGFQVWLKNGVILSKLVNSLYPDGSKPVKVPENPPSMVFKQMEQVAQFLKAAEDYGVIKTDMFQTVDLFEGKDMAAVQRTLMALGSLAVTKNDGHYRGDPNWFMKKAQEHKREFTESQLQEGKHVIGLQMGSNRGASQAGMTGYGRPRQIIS
UniProt P49888: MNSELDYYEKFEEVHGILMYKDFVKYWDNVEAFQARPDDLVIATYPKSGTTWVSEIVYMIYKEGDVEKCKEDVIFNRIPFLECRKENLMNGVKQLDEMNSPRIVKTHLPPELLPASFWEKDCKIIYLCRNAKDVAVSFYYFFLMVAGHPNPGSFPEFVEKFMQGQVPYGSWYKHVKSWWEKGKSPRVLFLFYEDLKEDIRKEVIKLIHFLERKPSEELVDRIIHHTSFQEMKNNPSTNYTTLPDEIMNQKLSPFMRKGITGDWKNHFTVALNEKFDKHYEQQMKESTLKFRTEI

compound: CC[C@H](C)[C@@H](C(=O)N[C@@H]([C@@H](C)O)C(=O)N[C@@H](CC(C)C)C(=O)[C@]1(CO1)C)NC(=O)[C@H]([C@@H](C)CC)N(C)C(=O)C [epoxomicin]; test: log2 fold change, soluble protein after heating vs DMSO (PISA); higher = thermal stabilisation; K562 cells, 10 uM, 30 min; active = over 0.2 and 3.5 SD of the protein, either way, in both replicates (recomputed)
In short: (§1)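 Values are thermal stability changes relative to control samples and are taken from duplicates. They are stated as log2 fold changes. Before quantification by TMTpro 16plex LC-MS/MS with equalised channel sums, K562 cells at 2×10^6 cells/mL were treated with 10 μM compound for 30 min, heated in aliquots for 3 min across 48°C-58°C, pooled, extracted in PBS with 0.5% NP-40 at 4°C, and centrifuged at 21,000xg for 90 min to give the soluble supernatant.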

log2 fold change, inactive:
SYP (UniProt P08247) -0.167
TBC1D10A (UniProt Q9BXI6) -0.01
TASP1 (UniProt Q9H6P5) -0.186
TAF5 (UniProt Q15542) 0.055
SUGP2 (UniProt Q8IX01) -0.108
STRN3 isoform 2 (UniProt Q13033) -0.072
SYK (UniProt P43405) 0.022
TATDN2 (UniProt Q93075) -0.096
TBC1D12 (UniProt O60347) 0.032
STXBP4 (UniProt Q6ZWJ1) -0.166
SYTL4 (UniProt Q96C24) 0.082
TAOK2 (UniProt Q9UL54) -0.01
SWI5 (UniProt Q1ZZU3) 0.115
TAGLN3 (UniProt Q9UI15) -0.113

compound: CCn1c(C(=O)N(C2CC2)C2CC2)cc2c3c(ncn3C)c(Nc3cc(C)n(C)n3)nc21; test: as above
In short: as §1

log2 fold change, inactive:
STXBP5L (UniProt Q9Y2K9) 0.089
SYP (UniProt P08247) 0.021
SUPT7L (UniProt O94864) 0.202
STK36 (UniProt Q9NRP7) 0.161
TASP1 (UniProt Q9H6P5) -0.33
TAF5 (UniProt Q15542) -0.147
STRN3 isoform 2 (UniProt Q13033) 0.017
STYX (UniProt Q8WUJ0) 0.013
SUGT1 isoform 2 (UniProt Q9Y2Z0) 0.117
TBC1D12 (UniProt O60347) -0.043
SUSD1 isoform 2 (UniProt Q6UWL2) -0.08
SYS1 (UniProt Q8N2H4) 0.054
TATDN1 isoform 2 (UniProt Q6P1N9) -0.135
TADA1 (UniProt Q96BN2) -0.02
SYTL4 (UniProt Q96C24) -0.032
TAF12 (UniProt Q16514) 0.012
SWI5 (UniProt Q1ZZU3) 0.009
SUFU (UniProt Q9UMX1) -0.324
TAGLN (UniProt Q01995) -0.899
SULT1E1 (UniProt P49888) 0.073
